Consider 24 sequences from publication PMC2262068.

No signal at the amounts used counts as a negative. Tags and fusion partners may be left off the protein sequences shown. The exact form of at least one protein or probe is not confirmed.

One data set has as its target T1, ArcA (His6-ArcA, unphosphorylated) (Shewanella oneidensis MR-1) (UniProt Q8EAB9).
T1 sequence (looked up, limits assumed): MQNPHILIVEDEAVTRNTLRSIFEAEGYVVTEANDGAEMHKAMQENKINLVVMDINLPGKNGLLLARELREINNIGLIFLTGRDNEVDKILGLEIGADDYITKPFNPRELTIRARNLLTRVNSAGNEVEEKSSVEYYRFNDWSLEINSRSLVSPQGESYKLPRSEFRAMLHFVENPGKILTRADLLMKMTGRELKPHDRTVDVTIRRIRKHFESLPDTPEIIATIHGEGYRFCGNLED
Kind of data set: EMSA. To be noted: unphosphorylated ArcA; 100 mM Tris/HCl pH 7.4, 20 mM KCl, 10 mM MgCl2, 2 mM DTT, 0.2 ug/ul poly(dI-dC), 10% glycerol, 15 C, 60 min; 2-5 nM 33P-labeled probe; recombinant protein; protein details: N-terminal His6 (pDEST17); label: 33P; only the motif is given.
As to “GTTAAATAATTGTTA (double strand) [so1661]”, the binding result is recorded as “no binding”.

A further data set addresses T2, ArcA-P (His6-ArcA phosphorylated with carbamoyl phosphate) (Shewanella oneidensis MR-1) (UniProt Q8EAB9).
T2 sequence (looked up, limits assumed): T1 sequence (looked up, limits assumed)
Kind of data set: EMSA. Conditions: ArcA phosphorylated with carbamoyl phosphate; 100 mM Tris/HCl pH 7.4, 20 mM KCl, 10 mM MgCl2, 2 mM DTT, 0.2 ug/ul poly(dI-dC), 10% glycerol, 15 C, 60 min; 2-5 nM 33P-labeled probe; recombinant protein; protein details: N-terminal His6 (pDEST17); label: 33P; only the motif is given.
Regarding “GTTAAGTAATTGTAA (double strand) [so1944]”, the binding result is on record as “binds”. Same read-out and setting: under “GTTAATTGATTGTAA (double strand) [so3855 (sfcA)]” stands “binds”; under “GAAAATTTTTTGTTA (double strand) [so0806]”, “binds”. On the same count and under the same terms, the value for “GTTAATTAATTGTTG (double strand) [so3565 (cpdB)]” was “binds”; that for “GTAAAATCGATGTTA (double strand) [so3659]” was “no binding”; that for “GTAAATTAATTGTTA (double strand) [so3106 (aprE)]” was “binds”. For the sequence “GTTAATTAAATGTCA (double strand) [so2099-5 (hoxK)]”, the binding result is listed as “binds”. Same read-out and setting: the value for “TTTAAAAATATGTTA (double strand) [so0756 (aroG)]” was “binds”; that for “GTTATTCAAATGTAA (double strand) [so2727]” was “binds”. The same measure, in the same setting: the value for “GTAATTTAAATGTTA (double strand) [so0866]” was “binds”; that for “GTGAACAGAATGTTA (double strand) [so0266-9 (ccmF-1)]” was “binds”; that for “GTTAAATAATTGTTA (double strand) [so1661]” was “binds”. As for “GTTGAAAAAATGTAA (double strand) [so2706 (astB)]”, the binding result was “binds”. On to “GTTAACTCAATGTTA (double strand) [so3507]”, for which the binding result is recorded as “binds”. Still for that read-out and setting: the value for “GTTAACAAAGCGATA (double strand) [so1307 (aqpZ)]” was “binds”; that for “GTTAATTAAATTATA (double strand) [so3099]” was “binds”; that for “GTTAAAAAAATGTGA (double strand) [so4245 (argA)]” was “binds”. The same measure, in the same setting: the value for “GTTAATAAAATGTTT (double strand) [so1427-30]” was “binds”; that for “GTTACTTTATTGTTA (double strand) [so1623 (ptsG)]” was “binds”; that for “GTTAATTTGATGTTA (double strand) [so1821]” was “binds”.

Still in this data set, the particulars now being: EMSA: 100 mM Tris/HCl pH 7.4, 20 mM KCl, 10 mM MgCl2, 2 mM DTT, 0.2 ug/ul poly(dI-dC), 10% glycerol, 15 C, 60 min, ~2-5 nM probe; recombinant protein; protein details: N-terminal His6 (pDEST17); label: 33P; probe letters rebuilt from the primers and the genome.
For the sequence “TTTACGATATGCTTCTAGCACGGCAACATTCCTCTTTGTTTGGCGCTCTAACAACGAAACTGCACGTCTTCTCAATTGAAGCTGACAGTCCGACATGATCGACCCGTATTTCCGGCCAGCAGTATACTACAGCTTTGCAAAAGTATGAATCAGGTCACACTCGGCAAAAGACGAAATAAGGGCTAAATCCGGAGGTGCAACTCAACTTACGGCATGAATAAAACAATGGAAATTAGACAATAGTTTGAAAACAGATAAAAAACCATAATCTACAGATAGTTAATATAAGTTCATCAATTTAAAATCGAACGAACATTTTTCTGATAACGAAATGCTTTTCACAGTAAATATTTCTCAACTTTGTGTATTTAGGCTTTGAAGATAGCGGGCTTAAACTTACACTCAAGCTCCAATAACCCATTTCCCGTCCTTTGGAGTAGTAATGACATCCCTTAGCATTCAAGCCGTCATTTTTGATATGGATGGCGTTTTAATCGATTCTGAACCCCTATGGCAGCGGGTTGAATATGAAGTCTTATCCGCCCTCGGTGTGCCTGTCACTCTCGAAAC (double strand) [so0432 (acnB) promoter]”, the binding result was “no binding”.

Regarding “CTAACAGATAAGCTTGCGGCAACTTTTAATGATTTCATCGTTAATTTCCTTTTTACTTTAAAAAGCTTTGGATACAACAATGCCTATACCTAATTAAATATATTAATGGCATTAAAATTAGATATGGCTATTCCGCGTGCAGATATGATGAGGCAATAAGTCGCTTTAGAATAAAATAAATAGATTTATTCCAAGTGAGTGACTTAGCCGCAGTTTTACTGCACTAACAAAAATGCTTTGATTTGAATGCGAGACAATAAGCCTTGTAAAACAGTAAAGTAAGTGCATAAGCCTATAATGGCAATACCACTTTTGACCTGTTAATTGGCCTACTACCTACGCGAAGATTAGCGAAGGAAGATAAATGAATGGTCGAAATAGTCACGTTGGCTAGGCATCATGATATGTCTAGTACGTCGGATATGTGCCATGATCTTAGATTTCCTCTTCATATACAACTCCATTATGAAAGTAGAGAAAATTATTGGTTTTTATTACGGGGTGGATTTTATCTGTGTGTTATCAATAAAAATATGATCC (double strand) [so0314 (speF) promoter]”, the binding result was “no binding”. Still for that read-out and setting: the value for “TAAATCCTGAGATTGGCCCACATTTATCCGCCGAGCGTGTTTATCACGATAATGCTTGGCTGCTGTACGCCTTATTGCTGCCCGCTGTGGTGATCCACGCCATGATTGGTTTGTACCGTGTGGCGGTTAAGTGGGGCATAACGGCTCAGCGTTCAGGTTTACGTAAACTCGCTAAGGTTTTGATTATCTATTTGTTGTGCCTTGGTAGCGCCAGCTTAGTTGCTTATATGCTTATCGGCAGCGAGTTGAGCATTCCTGTGCAGCCCTACGTGCCCCAGTGATTTGATTGCCAATCCTGCTGCGTTGCCCTGTAATGGATCGTCTCGGCAGGATTTTGTTTAGCTGCGACTCGTTTTAATTTGTTTTACCGCTAATAGTTAAGCATTCGATGAATTATTCACCCTCTAGTTGATCTAACTCAGGTTTGTTGTTGGATTTGTGAGCGATATTAATTTTCGAGGATAGGACTTAATCACTCTGGCTCGATGAAGCTGGTGGCGCGAGGCGAAAGCAATGGCAATCAAACTAAG (double strand) [so0397-9 (fdrC) promoter]” was “no binding”; that for “CGTTACGCTTATCATCCTGCTTTTACCCTTTGATGGTTTGTTGACACCTCTTTGCAAACTACACGATAGCAGTAACAAAATACCCGACTGAGCGTCACAGATTTAAAGCGTGAGATAACTCACGGGGTGAACATCAACTCTTAGAAGATGATCACAAAAACAAGGTAAAAAACCAAACAAAGGTAAAACCAATTAACCATTATATTTCATAGCTTTATACTAAATATCGAAACGAGTGGTTTGCATTTGCGTACAACAAAATGCTGACCCAATAACGCCTTGTCAATGCAGGAATAAAAGCCATTTTTATCTAAACGTGACGATAGAAACCCATTTACACAACCAGAGTTAAAAACGGCTTTGTTATGGTAATTTCTCGCCAAATCCTGCCGCTTAAGATGGTTTGGGTATACAATAGCGCGATATTTTTTAACCCTAGCCACAGGATTTACCCCATGCCTTGGATCCAACTCCGCATTAACACTAACAGTGATGATGCTGAAACCATCAGCGACTTACTCATGGAAGAAGGCGCAGTCTCTATTACTTTTGAAGATGGTAAAGACACCCCGATCTTTGAACCTAAACTG (double strand) [so0396 (frdC) promoter]” was “no binding”.
